No constants are given. Whether binding was seen depends on the method and setting. Binding seen in cells or lysates may run through a third protein. These calls come from enrichment with a bait or labelling near it, and not all partners need be listed.
Target: FLAG-HA-epitope tagged SHARP1 (Split and Hairy-related Protein 1) (UniProt Q9C0J9)
Test: affinity purification with mass spectrometry; FLAG-HA-SHARP1 expressed in HEK293T, cells treated with 10 μM MG132 for 5 hours; lysis in 50 mM Tris-HCl pH 7.5, 150 mM NaCl, 1 mM EDTA, 0.5% NP-40; anti-FLAG resin, FLAG peptide elution, then anti-HA resin; LC-MS/MS; empty vector as control

Chains of the proteins cited; added tags and fusions are not shown.
UniProt Q9C0J9: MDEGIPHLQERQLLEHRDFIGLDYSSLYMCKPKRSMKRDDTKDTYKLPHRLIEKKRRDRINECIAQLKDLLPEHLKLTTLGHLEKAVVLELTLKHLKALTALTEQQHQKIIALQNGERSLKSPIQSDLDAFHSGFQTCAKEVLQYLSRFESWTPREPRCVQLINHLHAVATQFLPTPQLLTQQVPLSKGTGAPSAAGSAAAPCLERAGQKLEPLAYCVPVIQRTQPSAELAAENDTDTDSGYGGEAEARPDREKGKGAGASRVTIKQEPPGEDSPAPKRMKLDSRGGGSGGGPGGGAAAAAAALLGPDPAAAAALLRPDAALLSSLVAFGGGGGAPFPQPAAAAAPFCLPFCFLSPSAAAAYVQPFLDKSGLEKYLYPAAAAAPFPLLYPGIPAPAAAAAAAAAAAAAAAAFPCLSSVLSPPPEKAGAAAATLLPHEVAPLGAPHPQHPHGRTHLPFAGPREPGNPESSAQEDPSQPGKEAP
UniProt P63208: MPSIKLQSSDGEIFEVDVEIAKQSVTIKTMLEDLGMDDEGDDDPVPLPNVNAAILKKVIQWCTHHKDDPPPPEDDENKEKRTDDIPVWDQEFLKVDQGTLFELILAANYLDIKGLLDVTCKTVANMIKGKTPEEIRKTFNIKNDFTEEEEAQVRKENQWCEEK
UniProt Q9Y297: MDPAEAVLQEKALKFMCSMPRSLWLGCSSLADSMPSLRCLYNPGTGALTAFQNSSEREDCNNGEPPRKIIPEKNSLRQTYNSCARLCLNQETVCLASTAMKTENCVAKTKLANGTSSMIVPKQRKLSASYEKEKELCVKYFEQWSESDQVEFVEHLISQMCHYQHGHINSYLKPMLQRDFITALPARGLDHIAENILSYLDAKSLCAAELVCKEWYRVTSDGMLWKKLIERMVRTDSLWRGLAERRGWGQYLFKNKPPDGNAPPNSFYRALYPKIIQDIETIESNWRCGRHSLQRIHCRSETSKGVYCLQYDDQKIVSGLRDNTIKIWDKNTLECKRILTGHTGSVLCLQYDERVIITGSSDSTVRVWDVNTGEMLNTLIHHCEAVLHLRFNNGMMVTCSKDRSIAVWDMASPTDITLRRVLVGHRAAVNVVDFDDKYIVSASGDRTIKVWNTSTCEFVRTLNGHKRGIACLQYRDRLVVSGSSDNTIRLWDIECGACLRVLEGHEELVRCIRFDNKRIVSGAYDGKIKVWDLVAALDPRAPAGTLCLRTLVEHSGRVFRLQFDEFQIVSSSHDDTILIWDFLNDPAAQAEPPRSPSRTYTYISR
UniProt Q9UKB1: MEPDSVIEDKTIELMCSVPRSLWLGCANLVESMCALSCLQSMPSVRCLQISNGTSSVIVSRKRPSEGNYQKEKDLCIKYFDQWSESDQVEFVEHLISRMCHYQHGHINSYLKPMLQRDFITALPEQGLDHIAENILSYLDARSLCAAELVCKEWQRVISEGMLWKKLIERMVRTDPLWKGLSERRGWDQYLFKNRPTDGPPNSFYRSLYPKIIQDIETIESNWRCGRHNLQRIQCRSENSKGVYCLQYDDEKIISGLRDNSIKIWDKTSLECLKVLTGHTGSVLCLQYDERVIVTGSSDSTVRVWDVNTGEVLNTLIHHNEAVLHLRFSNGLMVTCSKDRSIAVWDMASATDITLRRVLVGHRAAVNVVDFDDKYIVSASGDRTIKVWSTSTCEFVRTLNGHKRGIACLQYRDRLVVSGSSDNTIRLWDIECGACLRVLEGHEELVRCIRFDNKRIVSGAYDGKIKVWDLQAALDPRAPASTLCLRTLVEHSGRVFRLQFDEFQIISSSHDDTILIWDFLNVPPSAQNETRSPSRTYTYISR

| Substance | binding |
| --- | --- |
| SKP1 (endogenous, HEK293T cells) (from UniProt P63208 1-163) | binds |
| βTrCP1 (endogenous, HEK293T cells) (from UniProt Q9Y297 1-605) | binds |
| βTrCP2 (endogenous, HEK293T cells) (from UniProt Q9UKB1 1-542) | binds |
